Results published in publication PMC4694698.

Biological target: T1, VE-cadherin (Vascular Endothelial-cadherin) (human (endogenous in HUVEC)) (UniProt P33151)
T1 sequence: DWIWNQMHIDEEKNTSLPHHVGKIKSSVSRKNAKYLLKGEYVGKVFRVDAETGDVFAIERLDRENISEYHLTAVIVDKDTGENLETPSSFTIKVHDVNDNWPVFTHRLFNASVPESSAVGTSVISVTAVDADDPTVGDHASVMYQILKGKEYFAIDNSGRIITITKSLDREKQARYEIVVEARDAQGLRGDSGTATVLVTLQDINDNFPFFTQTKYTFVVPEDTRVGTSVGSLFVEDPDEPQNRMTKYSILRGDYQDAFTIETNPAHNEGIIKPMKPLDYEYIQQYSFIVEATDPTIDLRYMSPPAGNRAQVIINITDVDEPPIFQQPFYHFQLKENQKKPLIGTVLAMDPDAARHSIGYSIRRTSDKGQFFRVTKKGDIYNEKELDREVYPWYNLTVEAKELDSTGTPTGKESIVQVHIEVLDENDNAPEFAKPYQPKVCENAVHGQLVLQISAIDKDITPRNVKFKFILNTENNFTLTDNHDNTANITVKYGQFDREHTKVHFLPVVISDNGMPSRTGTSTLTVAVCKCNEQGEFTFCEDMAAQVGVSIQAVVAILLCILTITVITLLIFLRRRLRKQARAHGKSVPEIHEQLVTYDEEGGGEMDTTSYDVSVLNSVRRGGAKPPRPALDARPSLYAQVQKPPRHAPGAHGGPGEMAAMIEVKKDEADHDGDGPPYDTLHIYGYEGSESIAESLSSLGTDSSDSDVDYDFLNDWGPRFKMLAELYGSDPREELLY
Test: co-IP; HUVEC treated with PAI-039 (25 μM) or solvent (DMSO 0.1%) for four hours; NP-40 lysis buffer (25 mM Tris, 100 mM NaCl, 10 mM MgCl2, 10% glycerol, 1% Nonidet P-40, pH 7.4); lysate incubated with 2 μg mouse monoclonal VE-cadherin antibody and protein G-sepharose at 4°C; five washes; western blot

binding: binds
Substance: α-catenin (human (endogenous in HUVEC))

No constants are given. Whether binding was seen depends on the method and setting. Binding seen in cells or lysates may run through a third protein. Binding can be weak; no strength is given.
